PubChem BioAssay AID1259405 | NCATS, 2018
Test: 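Knock-downs that lift recombinant protein yield in hamster ovary cells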 (primary screen). Cells: Chinese hamster CHO-K1 ovary cells with stable secreted eGFP expression. Knock-down reagent: single siRNA against mouse genes, 0.8 pmol siRNA per well (2 µl of 400 nM stock). Duration: 3 days. Measurement: 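Percent of the per-plate non-targeting control median for intracellular GFP per well by laser scanning cytometry and for cell viability by ATP luminescence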. Scale: GFP, % of control: higher = more GFP per well, higher productivity; viability (ATP), % of control: higher = more viable cells (more ATP). Rule for the call: 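Called active when intracellular GFP, relative to negative control, is at or above 120%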.
In all, the deposit lists about 50,000 reagents; this is a random part of them. Of all reagents, about 4,000 (8%) were called active. 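Mouse siRNA library applied to hamster cells; one well for each siRNA.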 Entries without a mark were called inactive. Reagents against one gene are numbered here. No sequences are given here.

no.	target gene	siRNA no.	GFP, % of control	viability (ATP), % of control
1	Spdef (SAM pointed domain containing ets transcription factor)	1	65	57.6
2	Spdef (SAM pointed domain containing ets transcription factor)	2	84.2	78.3
3	Spdef (SAM pointed domain containing ets transcription factor)	3	97.6	83.5
4	Parp9 (poly (ADP-ribose) polymerase family, member 9)	1	87.7	66.7
5	Parp9 (poly (ADP-ribose) polymerase family, member 9)	2	82.9	84.8
6	Parp9 (poly (ADP-ribose) polymerase family, member 9)	3	80.5	77.7
7	Plekha3 (pleckstrin homology domain containing A3)	1	88.6	81.5
8	Plekha3 (pleckstrin homology domain containing A3)	2	71.4	71.1
9	Plekha3 (pleckstrin homology domain containing A3)	3	135 (active)	47.6
10	Prrx1 (paired related homeobox 1)	1	94.4	60.5
11	Prrx1 (paired related homeobox 1)	2	107	70.5
12	Prrx1 (paired related homeobox 1)	3	111	92.3
13	Rbm17 (RNA binding motif protein 17)	1	95.6	56
14	Rbm17 (RNA binding motif protein 17)	2	84.5	83.9
15	Rbm17 (RNA binding motif protein 17)	3	101	85.1
16	Vpreb1b (V-set pre-B cell surrogate light chain 1B)	1	48	36
17	Vpreb1b (V-set pre-B cell surrogate light chain 1B)	2	77.7	73.7
18	Vpreb1b (V-set pre-B cell surrogate light chain 1B)	3	56.3	48.3
19	Wdhd1 (WD repeat and HMG-box DNA binding protein 1)	1	45.9	55.8
20	Wdhd1 (WD repeat and HMG-box DNA binding protein 1)	2	70.3	71.9
21	Wdhd1 (WD repeat and HMG-box DNA binding protein 1)	3	103	91.6
22	Tas2r124 (taste receptor, type 2, member 124)	1	56.3	71
23	Tas2r124 (taste receptor, type 2, member 124)	2	101	91
24	Tas2r124 (taste receptor, type 2, member 124)	3	83.1	78.8
25	Avpr2 (arginine vasopressin receptor 2)	1	61.6	84.3
26	Avpr2 (arginine vasopressin receptor 2)	2	42.8	54.3
27	Avpr2 (arginine vasopressin receptor 2)	3	71.8	51.8
28	Zfp608 (zinc finger protein 608)	1	63.9	52.8
29	Zfp608 (zinc finger protein 608)	2	48.4	59
30	Zfp608 (zinc finger protein 608)	3	105	87
31	Or6c201 (olfactory receptor family 6 subfamily C member 201)	1	64.3	80.8
32	Or6c201 (olfactory receptor family 6 subfamily C member 201)	2	71.5	80.2
33	Or6c201 (olfactory receptor family 6 subfamily C member 201)	3	108	42
34	Epb41l3 (erythrocyte membrane protein band 4.1 like 3)	1	67.3	88.3
35	Epb41l3 (erythrocyte membrane protein band 4.1 like 3)	2	141 (active)	90.7
36	Epb41l3 (erythrocyte membrane protein band 4.1 like 3)	3	166 (active)	40.2
37	Cd79b (CD79B antigen)	1	76	96.5
38	Cd79b (CD79B antigen)	2	60.9	55.5
39	Cd79b (CD79B antigen)	3	65.3	83.1
40	Sf3b1 (splicing factor 3b, subunit 1)	1	76	13
41	Sf3b1 (splicing factor 3b, subunit 1)	2	106	15.4
42	Sf3b1 (splicing factor 3b, subunit 1)	3	63.5	8.8
43	Acbd6 (acyl-Coenzyme A binding domain containing 6)	1	99.6	75.6
44	Acbd6 (acyl-Coenzyme A binding domain containing 6)	2	33.4	34.4
45	Acbd6 (acyl-Coenzyme A binding domain containing 6)	3	66.9	62.8
46	Kifc5b (kinesin family member C5B)	1	54.2	54.2
47	Kifc5b (kinesin family member C5B)	2	61.1	66.6
48	Kifc5b (kinesin family member C5B)	3	64.4	67.4
49	Or10d4 (olfactory receptor family 10 subfamily D member 4)	1	38.4	34.4
50	Or10d4 (olfactory receptor family 10 subfamily D member 4)	2	64.7	85.4
51	Or10d4 (olfactory receptor family 10 subfamily D member 4)	3	63.8	49.3
52	Olfr426 (olfactory receptor 426)	1	52	53.6
53	Olfr426 (olfactory receptor 426)	2	79.4	92.5
54	Olfr426 (olfactory receptor 426)	3	49.7	69.5
55	Vmn1r209 (vomeronasal 1 receptor 209)	1	134 (active)	92.6
56	Vmn1r209 (vomeronasal 1 receptor 209)	2	132 (active)	42.9
57	Vmn1r209 (vomeronasal 1 receptor 209)	3	89.6	87.8

Sorted by “GFP, % of control” (low to high): 3 of the entries above
target gene	siRNA no.	GFP, % of control	viability (ATP), % of control
Rbm17 (RNA binding motif protein 17)	2	84.5	83.9
Rbm17 (RNA binding motif protein 17)	1	95.6	56
Prrx1 (paired related homeobox 1)	3	111	92.3
